Data reported in the supplement of paper PMC11732987, “Enantioselective OTUD7B fragment discovery through chemoproteomics screening and high-throughput optimisation” (Communications Chemistry, 2025).
This is one part of the list. The data scatter; read single values as rough.

The chains behind the UniProt entries cited, without tags or fusion partners. Where a name states a change or a piece, a line headed by the entry shows the natural chain unless it says otherwise. Residues count along the entry.
UniProt Q5T4S7, whole entry, looked up: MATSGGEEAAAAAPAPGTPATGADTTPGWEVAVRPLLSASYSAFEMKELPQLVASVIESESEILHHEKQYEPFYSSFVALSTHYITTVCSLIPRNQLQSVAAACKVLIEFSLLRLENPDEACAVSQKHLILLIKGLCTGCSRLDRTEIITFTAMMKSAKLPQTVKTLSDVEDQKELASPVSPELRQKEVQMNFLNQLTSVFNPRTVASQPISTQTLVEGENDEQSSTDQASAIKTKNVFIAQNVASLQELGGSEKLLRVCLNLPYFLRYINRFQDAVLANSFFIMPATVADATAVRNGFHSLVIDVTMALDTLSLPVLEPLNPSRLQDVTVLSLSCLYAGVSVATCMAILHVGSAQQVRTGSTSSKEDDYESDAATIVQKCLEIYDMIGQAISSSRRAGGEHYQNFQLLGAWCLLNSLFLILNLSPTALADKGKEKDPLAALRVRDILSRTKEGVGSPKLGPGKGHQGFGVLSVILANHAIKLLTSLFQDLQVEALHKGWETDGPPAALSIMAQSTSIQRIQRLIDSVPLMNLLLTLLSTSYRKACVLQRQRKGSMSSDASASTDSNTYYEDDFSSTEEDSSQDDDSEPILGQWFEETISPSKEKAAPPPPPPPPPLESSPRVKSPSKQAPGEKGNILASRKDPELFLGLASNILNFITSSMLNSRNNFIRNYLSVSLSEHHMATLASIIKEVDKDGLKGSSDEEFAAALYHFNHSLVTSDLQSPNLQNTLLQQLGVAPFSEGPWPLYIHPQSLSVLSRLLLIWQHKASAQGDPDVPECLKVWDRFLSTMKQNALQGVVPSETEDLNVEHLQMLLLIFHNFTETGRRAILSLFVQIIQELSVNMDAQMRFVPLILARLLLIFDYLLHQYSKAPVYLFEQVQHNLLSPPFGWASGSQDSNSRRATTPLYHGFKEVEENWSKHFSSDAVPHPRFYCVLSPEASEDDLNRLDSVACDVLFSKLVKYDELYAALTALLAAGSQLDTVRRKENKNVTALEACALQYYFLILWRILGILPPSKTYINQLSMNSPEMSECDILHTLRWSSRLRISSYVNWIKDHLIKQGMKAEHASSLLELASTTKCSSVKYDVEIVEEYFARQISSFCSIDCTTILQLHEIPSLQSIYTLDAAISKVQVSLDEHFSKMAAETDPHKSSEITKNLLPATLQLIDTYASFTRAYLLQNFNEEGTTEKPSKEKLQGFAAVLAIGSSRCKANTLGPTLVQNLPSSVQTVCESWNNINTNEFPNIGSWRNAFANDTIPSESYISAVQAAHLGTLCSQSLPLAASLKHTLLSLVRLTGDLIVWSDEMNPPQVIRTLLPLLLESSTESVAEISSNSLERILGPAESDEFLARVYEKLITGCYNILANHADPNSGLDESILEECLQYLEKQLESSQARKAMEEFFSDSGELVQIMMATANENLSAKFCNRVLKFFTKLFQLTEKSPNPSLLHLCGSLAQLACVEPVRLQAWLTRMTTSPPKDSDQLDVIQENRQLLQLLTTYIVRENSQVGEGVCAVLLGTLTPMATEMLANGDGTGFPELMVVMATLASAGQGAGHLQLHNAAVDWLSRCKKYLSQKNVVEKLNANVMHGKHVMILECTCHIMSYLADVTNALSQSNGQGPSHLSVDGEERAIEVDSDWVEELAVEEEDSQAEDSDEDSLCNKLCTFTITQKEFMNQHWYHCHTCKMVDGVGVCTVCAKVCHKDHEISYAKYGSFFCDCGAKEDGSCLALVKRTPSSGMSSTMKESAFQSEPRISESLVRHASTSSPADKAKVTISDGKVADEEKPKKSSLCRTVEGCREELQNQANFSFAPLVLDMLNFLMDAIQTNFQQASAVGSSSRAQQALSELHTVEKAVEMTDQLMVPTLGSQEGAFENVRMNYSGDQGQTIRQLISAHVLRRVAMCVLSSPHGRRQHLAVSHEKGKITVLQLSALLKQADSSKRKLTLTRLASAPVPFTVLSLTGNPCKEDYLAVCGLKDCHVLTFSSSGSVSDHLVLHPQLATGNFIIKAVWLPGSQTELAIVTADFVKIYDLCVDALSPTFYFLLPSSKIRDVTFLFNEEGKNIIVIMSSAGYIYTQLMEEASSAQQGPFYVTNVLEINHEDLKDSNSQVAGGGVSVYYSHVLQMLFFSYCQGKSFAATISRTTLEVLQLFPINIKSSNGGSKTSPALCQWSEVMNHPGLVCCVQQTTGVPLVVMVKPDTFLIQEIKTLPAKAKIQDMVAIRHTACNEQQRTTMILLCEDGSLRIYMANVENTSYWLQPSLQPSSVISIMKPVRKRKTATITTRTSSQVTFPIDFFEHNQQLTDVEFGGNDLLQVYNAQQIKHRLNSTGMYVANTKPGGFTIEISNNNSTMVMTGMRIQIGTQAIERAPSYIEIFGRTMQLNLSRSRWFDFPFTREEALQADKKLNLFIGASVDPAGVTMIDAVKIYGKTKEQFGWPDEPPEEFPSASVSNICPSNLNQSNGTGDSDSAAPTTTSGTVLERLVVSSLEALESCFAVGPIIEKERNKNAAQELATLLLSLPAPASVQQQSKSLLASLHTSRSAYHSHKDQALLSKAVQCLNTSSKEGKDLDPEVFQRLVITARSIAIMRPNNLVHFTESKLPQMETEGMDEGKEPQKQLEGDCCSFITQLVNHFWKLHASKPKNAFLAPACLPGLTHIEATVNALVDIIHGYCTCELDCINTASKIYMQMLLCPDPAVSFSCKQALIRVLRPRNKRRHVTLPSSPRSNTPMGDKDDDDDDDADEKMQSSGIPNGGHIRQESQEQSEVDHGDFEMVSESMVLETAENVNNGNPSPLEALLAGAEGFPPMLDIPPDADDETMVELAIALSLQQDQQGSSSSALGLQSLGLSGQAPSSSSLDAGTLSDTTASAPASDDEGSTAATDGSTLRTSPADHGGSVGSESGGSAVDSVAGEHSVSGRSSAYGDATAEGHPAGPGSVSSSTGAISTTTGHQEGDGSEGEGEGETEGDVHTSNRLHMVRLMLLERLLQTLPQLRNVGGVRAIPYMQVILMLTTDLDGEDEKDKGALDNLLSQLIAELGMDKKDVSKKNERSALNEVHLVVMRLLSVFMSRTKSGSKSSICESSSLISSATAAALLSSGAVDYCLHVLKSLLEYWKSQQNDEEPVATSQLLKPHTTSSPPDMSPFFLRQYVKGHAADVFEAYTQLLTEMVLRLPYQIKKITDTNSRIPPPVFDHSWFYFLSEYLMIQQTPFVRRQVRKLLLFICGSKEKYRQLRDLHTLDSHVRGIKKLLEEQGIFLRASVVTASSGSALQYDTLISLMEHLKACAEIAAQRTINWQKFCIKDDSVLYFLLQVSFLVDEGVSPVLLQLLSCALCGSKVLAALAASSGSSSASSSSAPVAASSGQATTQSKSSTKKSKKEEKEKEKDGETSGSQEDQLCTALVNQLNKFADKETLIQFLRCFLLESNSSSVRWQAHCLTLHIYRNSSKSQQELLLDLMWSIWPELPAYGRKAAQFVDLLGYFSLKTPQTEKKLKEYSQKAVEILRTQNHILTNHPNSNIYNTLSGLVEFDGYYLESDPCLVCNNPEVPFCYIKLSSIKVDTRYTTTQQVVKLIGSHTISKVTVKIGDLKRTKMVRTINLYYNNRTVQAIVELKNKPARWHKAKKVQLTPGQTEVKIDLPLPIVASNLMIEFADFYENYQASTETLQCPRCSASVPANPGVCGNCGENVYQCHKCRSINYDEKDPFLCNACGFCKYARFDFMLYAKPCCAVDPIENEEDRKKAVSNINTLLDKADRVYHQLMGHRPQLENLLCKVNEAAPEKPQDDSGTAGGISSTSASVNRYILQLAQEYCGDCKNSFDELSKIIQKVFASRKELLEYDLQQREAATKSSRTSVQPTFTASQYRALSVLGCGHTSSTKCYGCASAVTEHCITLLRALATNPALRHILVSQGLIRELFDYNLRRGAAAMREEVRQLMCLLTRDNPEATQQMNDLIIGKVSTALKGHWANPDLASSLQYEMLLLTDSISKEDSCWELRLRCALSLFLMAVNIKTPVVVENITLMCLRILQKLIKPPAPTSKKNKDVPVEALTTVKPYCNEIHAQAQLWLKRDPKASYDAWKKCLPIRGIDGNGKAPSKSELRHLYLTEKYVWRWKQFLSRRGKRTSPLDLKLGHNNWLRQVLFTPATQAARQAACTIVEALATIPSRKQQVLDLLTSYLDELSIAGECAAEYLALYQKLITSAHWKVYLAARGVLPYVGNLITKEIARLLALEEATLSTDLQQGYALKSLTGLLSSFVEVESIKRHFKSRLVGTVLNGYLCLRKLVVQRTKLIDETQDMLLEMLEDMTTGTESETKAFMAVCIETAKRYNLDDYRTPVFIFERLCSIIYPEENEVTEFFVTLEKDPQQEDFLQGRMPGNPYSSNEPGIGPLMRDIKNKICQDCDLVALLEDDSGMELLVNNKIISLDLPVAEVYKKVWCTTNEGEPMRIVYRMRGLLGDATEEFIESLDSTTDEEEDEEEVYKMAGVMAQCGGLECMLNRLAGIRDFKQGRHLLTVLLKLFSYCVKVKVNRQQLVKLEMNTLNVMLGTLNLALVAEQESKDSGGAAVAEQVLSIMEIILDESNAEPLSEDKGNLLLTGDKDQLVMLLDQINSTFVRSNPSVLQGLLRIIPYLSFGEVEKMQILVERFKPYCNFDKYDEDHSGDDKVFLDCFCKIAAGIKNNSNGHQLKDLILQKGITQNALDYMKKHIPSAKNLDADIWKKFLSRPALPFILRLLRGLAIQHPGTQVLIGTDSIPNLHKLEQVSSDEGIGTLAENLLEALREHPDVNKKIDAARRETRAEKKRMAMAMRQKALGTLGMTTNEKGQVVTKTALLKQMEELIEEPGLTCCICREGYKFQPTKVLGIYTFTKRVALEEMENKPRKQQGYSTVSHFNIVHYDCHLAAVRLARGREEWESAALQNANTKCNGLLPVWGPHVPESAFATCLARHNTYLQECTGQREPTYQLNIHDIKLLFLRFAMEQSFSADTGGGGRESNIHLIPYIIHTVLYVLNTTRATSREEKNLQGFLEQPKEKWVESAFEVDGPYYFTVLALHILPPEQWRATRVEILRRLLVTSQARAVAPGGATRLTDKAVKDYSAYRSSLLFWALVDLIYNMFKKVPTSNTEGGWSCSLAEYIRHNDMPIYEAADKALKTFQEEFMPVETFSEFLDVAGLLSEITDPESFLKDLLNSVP
UniProt Q12815: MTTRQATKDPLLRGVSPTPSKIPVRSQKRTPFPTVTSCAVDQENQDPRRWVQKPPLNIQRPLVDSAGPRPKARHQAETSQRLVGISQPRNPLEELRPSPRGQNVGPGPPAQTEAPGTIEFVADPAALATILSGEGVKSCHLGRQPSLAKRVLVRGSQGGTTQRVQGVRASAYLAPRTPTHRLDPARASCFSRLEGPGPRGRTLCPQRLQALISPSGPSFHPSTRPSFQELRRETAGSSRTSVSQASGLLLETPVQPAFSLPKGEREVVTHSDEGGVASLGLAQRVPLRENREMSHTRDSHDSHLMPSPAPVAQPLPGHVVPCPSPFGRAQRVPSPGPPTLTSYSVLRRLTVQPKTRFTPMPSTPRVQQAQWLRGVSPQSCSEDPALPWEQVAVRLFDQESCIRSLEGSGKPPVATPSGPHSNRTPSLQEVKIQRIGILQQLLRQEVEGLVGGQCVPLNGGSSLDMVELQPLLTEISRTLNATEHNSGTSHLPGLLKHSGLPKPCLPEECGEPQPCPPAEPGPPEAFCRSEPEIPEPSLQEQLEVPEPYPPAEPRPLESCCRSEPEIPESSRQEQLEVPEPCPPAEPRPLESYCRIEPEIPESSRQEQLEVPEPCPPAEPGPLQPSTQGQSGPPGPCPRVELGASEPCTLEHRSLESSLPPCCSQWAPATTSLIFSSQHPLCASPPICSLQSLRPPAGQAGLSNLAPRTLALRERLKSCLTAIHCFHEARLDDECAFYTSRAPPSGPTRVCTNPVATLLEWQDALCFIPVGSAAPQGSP
UniProt Q9Y5Z9, 21-40: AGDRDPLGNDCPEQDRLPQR
UniProt Q9UJT0, 198-220: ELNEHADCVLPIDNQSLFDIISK
UniProt Q7Z6J8: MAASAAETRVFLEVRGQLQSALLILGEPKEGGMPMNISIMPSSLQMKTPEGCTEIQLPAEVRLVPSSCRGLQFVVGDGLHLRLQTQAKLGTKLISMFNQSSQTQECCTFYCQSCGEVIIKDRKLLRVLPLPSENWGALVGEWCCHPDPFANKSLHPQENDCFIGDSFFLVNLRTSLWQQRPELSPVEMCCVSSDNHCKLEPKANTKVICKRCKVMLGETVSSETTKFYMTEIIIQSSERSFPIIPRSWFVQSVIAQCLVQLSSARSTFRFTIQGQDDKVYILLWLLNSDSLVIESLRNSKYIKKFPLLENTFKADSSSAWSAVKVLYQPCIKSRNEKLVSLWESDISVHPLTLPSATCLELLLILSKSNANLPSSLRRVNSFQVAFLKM
UniProt Q9BZL1: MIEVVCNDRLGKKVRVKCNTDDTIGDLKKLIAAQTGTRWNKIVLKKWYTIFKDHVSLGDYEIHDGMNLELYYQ

compound: ClCC(=O)N[C@@H]1CCCc2ccccc12; assay: log2 mean competition ratio of IA-DTB cysteine labelling (DMSO/compound) (log2 ratio); higher = stronger cysteine engagement by compound; conditions: 50 µM; treatment time: 4 h; cell line lysate: HEK293T
Method: (§1)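 IA-DTB competitive cysteine chemoproteomics in HEK293T RIPA lysate. Lysates were treated with compound 29 or 30 at 50 or 200 µM for 4 h, then IA-DTB (500 µM, 1 h), trypsin-digested, NeutrAvidin-enriched and analysed by diaPASEF. Competition ratio = intensity DMSO / intensity compound (n=4 treated, n=64 DMSO); binding: mean log2 CR ≥ 1 and p ≤ 0.05 plus QC filters. Target is the cysteine site.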

| Target | log2 mean competition ratio |
| --- | --- |
| TRPM7 C1411 (UniProt Q96QT4) | 0.0785 |
| TTC31 C107 | 0.11 |
| UBA3 C28 (UniProt Q8TBC4) | 0.303 |
| UAP1 C293 (UniProt Q16222) | -0.249 |
| TUT4 C458 (UniProt Q5TAX3) | 0.106 |
| TRMT11 C5 (UniProt Q7Z4G4) | 0.256 |
| TTC30A C174 | 0.0759 |
| UBR4 C2554 (UniProt Q5T4S7) | 0.204 |
| TSPYL4 C117 (UniProt Q9UJ04) | -0.193 |
| TUBGCP6 C615 (UniProt Q96RT7) | -0.0529 |
| TROAP C647 (UniProt Q12815) | -0.281 |
| UBIAD1 C31 (UniProt Q9Y5Z9) | -0.259 |
| TSPY9;TSPY2;TSPY3;TSPY4;TSPY8;TSPY10;TSPY1 C283;(C277);(C277);(C283);(C277);(C277);(C277) | 0.0428 |
| TRMT10A C37 (UniProt Q8TBZ6) | -0.0933 |
| UACA C1258 (UniProt Q9BZF9) | -0.5 |
| UBR2 C1717 (UniProt Q8IWV8) | 0.284 |
| TSFM C315 (UniProt P43897) | -0.0544 |
| TWF2 C275 (UniProt Q6IBS0) | 0.267 |
| TUBE1 C205 (UniProt Q9UJT0) | -0.257 |

| Target | log2 mean competition ratio |
| --- | --- |
| UACA C980 (UniProt Q9BZF9) | -0.422 |
| TRMT44 C194 (UniProt Q8IYL2) | 0.299 |
| TYK2 C402 (UniProt P29597) | -0.164 |
| UBE3D C330 (UniProt Q7Z6J8) | 0.298 |
| UBAC1 C47 (UniProt Q9BSL1) | 0.399 |
| TTC9 C67 | -0.0629 |
| UBR1 C589 (UniProt Q8IWV7) | -0.0924 |
| UBR4 C2222 (UniProt Q5T4S7) | 0.027 |
| TTC28 C274 (UniProt Q96AY4) | -0.104 |
| TTF2 C37 (UniProt Q9UNY4) | -0.113 |
| TTC21B C937 (UniProt Q7Z4L5) | 0.0305 |
| TWNK C77 (UniProt Q96RR1) | 0.0574 |
| UBL5 C6 (UniProt Q9BZL1) | -0.192 |
| TUBGCP3 C274 (UniProt Q96CW5) | -0.0407 |
| TXNRD2 C500 (UniProt Q9NNW7) | -0.197 |
| UAP1L1 C231 (UniProt Q3KQV9) | -0.155 |
| TUT7 C775 (UniProt Q5VYS8) | -0.0261 |
| TRMT2A C365 (UniProt Q8IZ69) | 0.117 |

same assay, conditions: 200 µM; treatment time: 4 h; cell line lysate: HEK293T

| Target | log2 mean competition ratio |
| --- | --- |
| TRPM7 C1411 (UniProt Q96QT4) | 0.241 |
| TTC31 C107 | 0.139 |
| UBA3 C28 (UniProt Q8TBC4) | 0.209 |
| UAP1 C293 (UniProt Q16222) | -0.0487 |
| TUT4 C458 (UniProt Q5TAX3) | 0.0253 |
| TRMT11 C5 (UniProt Q7Z4G4) | -0.38 |
| TTC30A C174 | -0.116 |
| UBR4 C2554 (UniProt Q5T4S7) | 0.103 |
| TSPYL4 C117 (UniProt Q9UJ04) | 0.114 |
| TUBGCP6 C615 (UniProt Q96RT7) | 0.578 |
| TROAP C647 (UniProt Q12815) | 0.213 |
| UBIAD1 C31 (UniProt Q9Y5Z9) | 0.183 |
| TSPY9;TSPY2;TSPY3;TSPY4;TSPY8;TSPY10;TSPY1 C283;(C277);(C277);(C283);(C277);(C277);(C277) | 0.0674 |
| TRMT10A C37 (UniProt Q8TBZ6) | -0.0595 |
| UACA C1258 (UniProt Q9BZF9) | 0.303 |
| UBR2 C1717 (UniProt Q8IWV8) | 0.236 |
| TSFM C315 (UniProt P43897) | -0.223 |
| TWF2 C275 (UniProt Q6IBS0) | 0.0457 |
| TUBE1 C205 (UniProt Q9UJT0) | 0.18 |

| Target | log2 mean competition ratio |
| --- | --- |
| UACA C980 (UniProt Q9BZF9) | -0.033 |
| TRMT44 C194 (UniProt Q8IYL2) | 0.126 |
| TYK2 C402 (UniProt P29597) | 0.0066 |
| UBE3D C330 (UniProt Q7Z6J8) | -0.105 |
| UBAC1 C47 (UniProt Q9BSL1) | -0.595 |
| TTC9 C67 | -0.136 |
| UBR1 C589 (UniProt Q8IWV7) | -0.322 |
| UBR4 C2222 (UniProt Q5T4S7) | 0.0077 |
| TTC28 C274 (UniProt Q96AY4) | 0.453 |
| TTF2 C37 (UniProt Q9UNY4) | 0.00591 |
| TTC21B C937 (UniProt Q7Z4L5) | 0.405 |
| TWNK C77 (UniProt Q96RR1) | 0.139 |
| UBL5 C6 (UniProt Q9BZL1) | 0.0305 |
| TUBGCP3 C274 (UniProt Q96CW5) | 0.00287 |
| TXNRD2 C500 (UniProt Q9NNW7) | 0.286 |
| UAP1L1 C231 (UniProt Q3KQV9) | -0.151 |
| TUT7 C775 (UniProt Q5VYS8) | -0.0906 |
| TRMT2A C365 (UniProt Q8IZ69) | 0.204 |

compound: ClCC(=O)N[C@H]1CCCc2ccccc12; assay: as above; conditions: 50 µM; treatment time: 4 h; cell line lysate: HEK293T
Method: as §1

| Target | log2 mean competition ratio |
| --- | --- |
| TRPM7 C1411 (UniProt Q96QT4) | 0.319 |
| TTC31 C107 | 0.128 |
| UBA3 C28 (UniProt Q8TBC4) | 0.677 |
| UAP1 C293 (UniProt Q16222) | -0.129 |
| TUT4 C458 (UniProt Q5TAX3) | 0.461 |
| TRMT11 C5 (UniProt Q7Z4G4) | 0.496 |
| TTC30A C174 | 0.0822 |
| UBR4 C2554 (UniProt Q5T4S7) | 0.0495 |
| TSPYL4 C117 (UniProt Q9UJ04) | -0.131 |
| TUBGCP6 C615 (UniProt Q96RT7) | -0.143 |
| TROAP C647 (UniProt Q12815) | -0.223 |
| UBIAD1 C31 (UniProt Q9Y5Z9) | -0.818 |
| TSPY9;TSPY2;TSPY3;TSPY4;TSPY8;TSPY10;TSPY1 C283;(C277);(C277);(C283);(C277);(C277);(C277) | 0.377 |
| TRMT10A C37 (UniProt Q8TBZ6) | -0.259 |
| UACA C1258 (UniProt Q9BZF9) | -0.77 |
| UBR2 C1717 (UniProt Q8IWV8) | 0.25 |
| TSFM C315 (UniProt P43897) | 0.343 |
| TWF2 C275 (UniProt Q6IBS0) | 0.255 |
| TUBE1 C205 (UniProt Q9UJT0) | -0.805 |

| Target | log2 mean competition ratio |
| --- | --- |
| UACA C980 (UniProt Q9BZF9) | -0.118 |
| TRMT44 C194 (UniProt Q8IYL2) | 0.266 |
| TYK2 C402 (UniProt P29597) | -0.295 |
| UBE3D C330 (UniProt Q7Z6J8) | 0.633 |
| UBAC1 C47 (UniProt Q9BSL1) | 0.763 |
| TTC9 C67 | 0.129 |
| UBR1 C589 (UniProt Q8IWV7) | -0.0358 |
| UBR4 C2222 (UniProt Q5T4S7) | -0.137 |
| TTC28 C274 (UniProt Q96AY4) | -0.105 |
| TTF2 C37 (UniProt Q9UNY4) | -0.0191 |
| TTC21B C937 (UniProt Q7Z4L5) | 0.0886 |
| TWNK C77 (UniProt Q96RR1) | -0.146 |
| UBL5 C6 (UniProt Q9BZL1) | 0.00622 |
| TUBGCP3 C274 (UniProt Q96CW5) | -0.29 |
| TXNRD2 C500 (UniProt Q9NNW7) | 0.173 |
| UAP1L1 C231 (UniProt Q3KQV9) | 0.245 |
| TUT7 C775 (UniProt Q5VYS8) | -0.0394 |
| TRMT2A C365 (UniProt Q8IZ69) | 0.211 |
